In US20220082578A1, “METHOD OF Q[…]'S MAIN METABOLITES, PSILOCIN AND 4-HYDROXYINDOLE-3-ACETIC ACID, IN HUMAN PLASMA” (Universitätsspital Basel, priority 2020, published 2022):
For part of these data: For at least one compound, name, drawing or mass did not settle the structure. Some entries share one result that the patent states for a list of compounds.

How the values were obtained:
[1] = Stability of psilocin and 4-HIAA in plasma under different storage conditions; assay type: physicochemical, human; conditions: for accuracy after storage compared to fresh samples: human plasma, eight hours at room temperature or one month at −20° C.; for degradation: plasma, three freeze/thaw cycles, 8 hours at room temperature or 1 month at −20° C.
Description: The stability of psilocin and 4-HIAA in plasma were investigated under different storage conditions. Seven replicates of LLOQ, QCLOW, QCMID, and QCHIGH samples were stored for 8 hours at room temperature (bench-top stability) and for 1 month at −20° C. (one-month stability). Moreover, the stability was assessed after three consecutive freeze and thaw cycles (freeze/thaw stability), thereby freezing the QC samples at −20° C. for at least 24 hours and thawing them afterwards at room temperature. The concentration of those stability test samples was calculated based on a freshly prepared calibration line. Samples were designated to be stable if the accuracy was between 85-115% (LLOQ: 80-120%) and the precision ≤15% (LLOQ: ≤20%).

[2] = after oral administration; cited from earlier work

Compound | accuracy after storage compared to fresh samples [1] | degradation [1] [%] | duration of subjective effects [2] [h] | time to peak of subjective effects [2] [h]
O=C(O)Cc1c[nH]c2cccc(O)c12 [4-HIAA, 4-hydroxyindole-3-acetic acid] | 94.8-110% | ≤ 10 |  | 
CN(C)CCc1c[nH]c2cccc(OP(=O)(O)O)c12 [psilocybin, reference compound] |  |  | 6 | 2
CN(C)CCc1c[nH]c2cccc(O)c12 [psilocin] | 94.8-110% | ≤ 10 |  | 
